In patent publication US20120041012A1, “SUBSTITUTED SPIROCYCLIC AMINES USEFUL AS ANTIDIABETIC COMPOUNDS” (priority 2009, published 2012):
Read-outs that look alike come from different tables or passages of the source. The structures given here were assigned with low confidence; some may be wrong.

The chains behind the UniProt entries cited, without tags or fusion partners.
UniProt P35346, whole entry: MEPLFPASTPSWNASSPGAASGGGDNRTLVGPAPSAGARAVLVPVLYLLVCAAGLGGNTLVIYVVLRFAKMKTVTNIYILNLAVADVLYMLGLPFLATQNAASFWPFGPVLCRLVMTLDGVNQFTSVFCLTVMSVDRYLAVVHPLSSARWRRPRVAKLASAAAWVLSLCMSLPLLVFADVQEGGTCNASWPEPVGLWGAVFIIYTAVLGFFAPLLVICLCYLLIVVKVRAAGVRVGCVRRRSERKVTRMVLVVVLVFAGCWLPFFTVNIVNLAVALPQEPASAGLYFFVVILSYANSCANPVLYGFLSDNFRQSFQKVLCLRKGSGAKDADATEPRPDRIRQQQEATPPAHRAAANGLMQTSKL

What was measured:
SSTR5 [1] = molecular target: T1, SSTR5 (Homo sapiens, UniProt P35346); assay: Functional assay of SSTR5 mediated cyclic AMP production in SSTR5 expressing CHO cells; conditions: read-out: SSTR5 (cAMP) IC50, Table 2, FSK plus SS-28
SSTR5 [2] = molecular target: T1, SSTR5; assay: SSTR5 receptor-ligand binding assay, CHO-K1 cell membranes, 125I-SRIF radioligand; conditions: read-out: SSTR5 Ki, Table 2

SMILES | IC50 (SSTR5 [1]; tested form: TFA) [nM] | Ki (SSTR5 [2]; tested form: TFA) [nM] | IC50 (SSTR5 [1]) [nM] | Ki (SSTR5 [2]) [nM]
O=C(O)c1ccc(N2CC3(CCN(Cc4cc(OC5CC5)c(Br)c(OC5CC5)c4)CC3)CC2=O)cc1 | 5.6 | 9.2 | – | –
CCOc1cc(CN2CCC3(CC2)CC(=O)N(c2ccc(C(=O)O)cc2)C3)cc(OCC)c1-c1ccc(F)cc1F | – | – | 0.95 | 0.735
